Measured values as given in US20100190688A1, “Tetrapeptide analogs” (priority 2004, published 2010).
At least one peptide structure holds a part that was inferred or is arguable (an end, a ring closure or a residue). Residues, ends and D or L forms follow the SMILES beside them. *: point of attachment. 5FAM = O=C1OC2(c3ccc(O)cc3Oc3cc(O)ccc32)c2ccc(C(=O)*)cc21

Protein sequences, listed by entry. Tags and fused reporters are not part of them. Residues count along the entry.
UniProt Q9R0I6, 241-355: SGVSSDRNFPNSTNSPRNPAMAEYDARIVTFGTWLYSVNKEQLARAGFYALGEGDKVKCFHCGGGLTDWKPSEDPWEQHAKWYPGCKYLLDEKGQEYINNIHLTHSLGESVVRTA

Molecular target: BIR3 domain of rat XIAP (Rattus norvegicus, UniProt Q9R0I6)
Experiment: Fluorescence polarization assay, binding to BIR3 from rat XIAP
Conditions: read-out: binding constant (Kd) of probe 1 for rat BIR3

`CC(C)[C@H](NC(=O)[C@H](C)N)C(=O)N1CCC[C@H]1C(=O)N[C@@H](Cc1ccccc1)C(=O)N[C@@H](C)C(=O)N[C@@H](CCCCNC(=O)c1ccc2c(c1)C(=O)OC21c2ccc(O)cc2Oc2cc(O)ccc21)C(=O)O` [probe 1, H-Ala-Val-Pro-Phe-Ala-Lys-OH covalently modified on the epsilon-amino group of the C-terminal lysine with 5-carboxyfluorescein, reference compound] (H-AVPFAK(5FAM)-OH) was tested, and the Kd was 96 nM.
